Data reported in PubChem BioAssay AID504467 (National Center for Advancing Translational Sciences (NCATS), 2011).
Screen size: about 330,000 compounds; about 7,700 (2.3%) were called active. The shares of active, inactive and inconclusive entries below differ from those in the screen. Calls follow the shape of the dose curve; as a rule, active = well fitted inhibition curve with a large enough effect; inconclusive = small, poorly fitted or top-dose-only effect, or effect the other way; inactive = flat fitted curve, though single readings scatter. Where the call is inconclusive, the potency comes from a doubtful curve fit.
Potency is read from the fitted curve at half-maximal effect.

Assay: qHTS screen for small molecules that inhibit ELG1-dependent DNA repair in human embryonic kidney (HEK293T) cells expressing luciferase-tagged ELG1; also: nearly all actives have a fitted effect of over 55% in size
Conditions: HEK293T ELG1-luciferase reporter, luminescence, 16 h, DNA damage induced by 5-fluorouridine; series mostly up to 46.1 µM
Method in brief: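 Reporter activity after DNA damage by 5-fluorouridine is monitored. Compound-treated cells incubate 16 hr at 37 °C, then ONE-Glo is added for 30 min before luminescence reading.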
With `C/C(=N\Nc1cccc2cccnc12)c1ccc(C)cc1` the Potency was inconclusive: 9.2 µM [activator, partial curve].
For `Cc1cccc(-c2nsc(SCC(=O)NCc3ccco3)n2)c1`, the Potency was inconclusive: 25.9 µM [activator, single point].
In the case of `CCOC(=O)N1CCN(C(=O)c2ccc(NS(=O)(=O)c3ccc4[nH]c(=O)[nH]c4c3)cc2)CC1`, the Potency was “inactive”.
With `Cc1c(Cl)cccc1NC(=O)CC(Cc1ccccc1)C(=O)O` (centres undefined) the Potency was “inactive”.
For `COc1ccccc1-c1cc(C(=O)NCCc2ccccc2)no1`, the Potency was inconclusive: 3.26 µM [activator, full curve].
In the case of `N/C(=N\OC(=O)c1ccccc1Cl)c1ccccc1`, the Potency was inconclusive: 2.91 µM [activator, full curve].
In the case of `CCO[C@@H]1c2c(ccc3ccc(=O)oc23)OC(C)(C)[C@@H]1O`, the Potency was “inactive”.
In the case of `O=c1[nH]cnc2c1sc1nc(C(F)F)cc(-c3ccccc3)c12`, the Potency was inconclusive: 29.1 µM [activator, single point].
In the case of `CN(CC(=O)Nc1cccc(F)c1)C(=O)c1ccc(N2CCCC2)c([N+](=O)[O-])c1`, the Potency was inconclusive: 25.9 µM [inhibitor, single point].
In the case of `CCc1cccc(CC)c1NC(=S)NC(C)c1ccccc1` (centres undefined), the Potency was “inactive”.
For `Cc1cccc(OCC(=O)Nc2cc(S(=O)(=O)N3CCOCC3)ccc2N2CCCC2)c1C`, the Potency was inconclusive: 29.1 µM [inhibitor, partial curve, poor fit].
With `S=c1[nH]nc(-c2n[nH]c3c2CCC3)n1/N=C/C=C/c1ccco1` the Potency was “inactive”.
In the case of `COc1cc(/C=N/NC(=O)Cn2nc([N+](=O)[O-])cc2C)cc(Br)c1OCc1ccccc1`, the Potency was inconclusive: 20.6 µM [inhibitor, single point].
In the case of `O=C(O)c1ccccc1-c1nc2ccccc2c(=O)n1O`, the Potency was “inactive”.
With `COc1ccc([C@H]2CC(=O)C=C(c3ccc(Cl)c(C(F)(F)F)c3)C2)cc1OC` the Potency was inconclusive: 29.1 µM [inhibitor, single point].
With `COc1cc(OC)cc(C(=O)Nc2ccc3c(c2)OCCO3)c1` the Potency was inconclusive: 7.08 µM [activator, partial curve].
For `COCCCn1c(=O)c2ccccc2n(Cc2cc(C(=O)OC)ccc2OC)c1=O`, the Potency was inconclusive: 18.3 µM [inhibitor, single point].
In the case of `CCc1ccc(OCCCC(=O)Nc2ccc(N3CCCCC3)cc2)cc1`, the Potency was inconclusive: 0.0058 µM [inhibitor, full curve, poor fit].
In the case of `COc1cc(CNc2ccc(O)cc2)cc(Br)c1OCc1ccccc1F`, the Potency was inconclusive: 18.4 µM [inhibitor, partial curve].
